In the supplement of paper PMC12823440, “Inhibitors supercharge kinase turnover through native proteolytic circuits” (Nature, 2025):
Where a name gives a salt, the structure may show the parent alone. The list shows a part of the results. The calls rarely recur for the same compound in another form.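 Kinases, fused to nanoluciferase, were expressed in K562 cells; luminescence was measured every 4 h from 2 to 18 h as percent of control (DMSO = 100%, positive control = 0%). A time point is decreased if signal falls significantly (2 sigma). Hits were called by the authors by a rule that is not shown; the count of time points alone does not decide it.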

Chains of the proteins cited; added tags and fusions are not shown. Lines headed by an entry give the natural chain unless they say otherwise; changes in a name come on top.
UniProt P36888, whole entry: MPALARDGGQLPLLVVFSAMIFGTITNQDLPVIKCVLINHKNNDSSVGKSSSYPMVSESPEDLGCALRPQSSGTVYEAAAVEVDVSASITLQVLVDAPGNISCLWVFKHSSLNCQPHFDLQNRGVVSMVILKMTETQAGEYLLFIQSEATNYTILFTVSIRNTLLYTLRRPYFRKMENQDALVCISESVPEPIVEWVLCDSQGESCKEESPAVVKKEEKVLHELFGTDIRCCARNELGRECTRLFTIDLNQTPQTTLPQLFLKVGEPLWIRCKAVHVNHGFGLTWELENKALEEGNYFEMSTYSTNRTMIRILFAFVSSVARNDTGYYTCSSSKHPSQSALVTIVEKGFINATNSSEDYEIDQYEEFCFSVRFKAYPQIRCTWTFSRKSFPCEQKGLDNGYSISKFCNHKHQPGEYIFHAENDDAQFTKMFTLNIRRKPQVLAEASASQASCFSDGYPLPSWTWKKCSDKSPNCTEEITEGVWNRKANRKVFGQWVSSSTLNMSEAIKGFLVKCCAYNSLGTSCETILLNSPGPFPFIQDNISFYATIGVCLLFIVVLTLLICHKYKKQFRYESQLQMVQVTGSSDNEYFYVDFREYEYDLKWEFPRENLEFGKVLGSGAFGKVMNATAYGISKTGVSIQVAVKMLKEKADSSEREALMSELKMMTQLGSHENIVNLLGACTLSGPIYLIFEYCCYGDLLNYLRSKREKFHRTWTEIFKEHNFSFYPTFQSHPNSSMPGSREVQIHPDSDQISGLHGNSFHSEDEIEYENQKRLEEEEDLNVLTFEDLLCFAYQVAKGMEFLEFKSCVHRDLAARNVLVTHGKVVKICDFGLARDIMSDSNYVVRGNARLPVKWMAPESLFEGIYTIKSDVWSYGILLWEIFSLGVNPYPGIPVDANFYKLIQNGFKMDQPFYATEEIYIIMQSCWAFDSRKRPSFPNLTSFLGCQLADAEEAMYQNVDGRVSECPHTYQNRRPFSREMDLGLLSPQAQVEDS
UniProt P49840: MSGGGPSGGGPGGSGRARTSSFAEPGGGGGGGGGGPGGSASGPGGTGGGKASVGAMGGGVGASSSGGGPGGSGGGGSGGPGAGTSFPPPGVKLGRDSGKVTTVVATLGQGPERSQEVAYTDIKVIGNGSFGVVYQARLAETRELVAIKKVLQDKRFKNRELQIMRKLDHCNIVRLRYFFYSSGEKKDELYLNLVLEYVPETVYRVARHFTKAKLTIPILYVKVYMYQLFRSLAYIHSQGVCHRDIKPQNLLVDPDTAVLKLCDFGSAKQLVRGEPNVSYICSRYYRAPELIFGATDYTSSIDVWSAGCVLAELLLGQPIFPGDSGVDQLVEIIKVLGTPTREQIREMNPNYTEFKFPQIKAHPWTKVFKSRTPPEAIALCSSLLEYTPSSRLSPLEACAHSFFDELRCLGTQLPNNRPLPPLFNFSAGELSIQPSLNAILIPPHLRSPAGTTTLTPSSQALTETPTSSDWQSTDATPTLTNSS
UniProt P14616: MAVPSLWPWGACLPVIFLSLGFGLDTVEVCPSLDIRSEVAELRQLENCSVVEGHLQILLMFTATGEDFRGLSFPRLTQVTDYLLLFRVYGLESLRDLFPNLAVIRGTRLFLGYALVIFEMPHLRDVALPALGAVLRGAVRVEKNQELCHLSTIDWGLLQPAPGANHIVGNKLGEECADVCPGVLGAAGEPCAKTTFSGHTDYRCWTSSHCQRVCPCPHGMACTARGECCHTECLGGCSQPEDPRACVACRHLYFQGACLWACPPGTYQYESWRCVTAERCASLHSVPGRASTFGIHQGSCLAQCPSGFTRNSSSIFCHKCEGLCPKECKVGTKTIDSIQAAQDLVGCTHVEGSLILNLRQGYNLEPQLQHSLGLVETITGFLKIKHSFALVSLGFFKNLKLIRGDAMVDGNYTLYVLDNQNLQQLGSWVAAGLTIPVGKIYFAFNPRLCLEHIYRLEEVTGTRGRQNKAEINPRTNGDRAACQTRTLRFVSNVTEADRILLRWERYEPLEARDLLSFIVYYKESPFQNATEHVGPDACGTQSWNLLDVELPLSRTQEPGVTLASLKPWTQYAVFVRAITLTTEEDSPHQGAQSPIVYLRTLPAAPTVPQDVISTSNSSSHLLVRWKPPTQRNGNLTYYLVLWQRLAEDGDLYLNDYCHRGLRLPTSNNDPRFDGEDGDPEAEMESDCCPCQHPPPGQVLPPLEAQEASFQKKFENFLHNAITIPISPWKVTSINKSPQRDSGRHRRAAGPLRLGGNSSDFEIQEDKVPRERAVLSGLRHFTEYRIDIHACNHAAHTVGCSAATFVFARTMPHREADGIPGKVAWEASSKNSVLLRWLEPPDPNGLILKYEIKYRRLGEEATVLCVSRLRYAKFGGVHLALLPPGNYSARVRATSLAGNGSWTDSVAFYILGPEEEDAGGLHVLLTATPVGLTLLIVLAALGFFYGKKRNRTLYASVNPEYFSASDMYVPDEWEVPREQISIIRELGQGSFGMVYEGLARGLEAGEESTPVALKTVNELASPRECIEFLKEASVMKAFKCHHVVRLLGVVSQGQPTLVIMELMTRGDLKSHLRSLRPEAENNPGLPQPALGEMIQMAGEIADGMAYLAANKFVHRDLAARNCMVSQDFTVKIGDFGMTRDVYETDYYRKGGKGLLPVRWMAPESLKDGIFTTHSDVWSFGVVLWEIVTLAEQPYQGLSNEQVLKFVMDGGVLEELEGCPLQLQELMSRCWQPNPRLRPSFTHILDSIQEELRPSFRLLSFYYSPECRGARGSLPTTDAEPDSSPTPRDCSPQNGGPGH
UniProt Q9Y616: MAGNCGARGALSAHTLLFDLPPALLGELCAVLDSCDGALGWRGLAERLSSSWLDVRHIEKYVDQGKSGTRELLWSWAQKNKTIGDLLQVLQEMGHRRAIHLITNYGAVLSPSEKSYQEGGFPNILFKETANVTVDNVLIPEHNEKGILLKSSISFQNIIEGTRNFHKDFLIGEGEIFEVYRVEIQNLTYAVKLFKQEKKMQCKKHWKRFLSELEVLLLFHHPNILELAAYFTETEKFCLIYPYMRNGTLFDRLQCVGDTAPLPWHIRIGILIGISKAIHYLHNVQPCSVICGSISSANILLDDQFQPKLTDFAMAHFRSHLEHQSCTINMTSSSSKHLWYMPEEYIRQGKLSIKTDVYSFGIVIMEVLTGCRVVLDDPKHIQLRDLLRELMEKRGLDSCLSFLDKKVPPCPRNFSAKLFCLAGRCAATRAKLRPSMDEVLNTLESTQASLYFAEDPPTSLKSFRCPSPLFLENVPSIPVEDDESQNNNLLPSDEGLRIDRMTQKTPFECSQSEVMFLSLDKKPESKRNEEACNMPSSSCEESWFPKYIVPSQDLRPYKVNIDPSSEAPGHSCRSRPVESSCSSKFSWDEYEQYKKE
UniProt P23458: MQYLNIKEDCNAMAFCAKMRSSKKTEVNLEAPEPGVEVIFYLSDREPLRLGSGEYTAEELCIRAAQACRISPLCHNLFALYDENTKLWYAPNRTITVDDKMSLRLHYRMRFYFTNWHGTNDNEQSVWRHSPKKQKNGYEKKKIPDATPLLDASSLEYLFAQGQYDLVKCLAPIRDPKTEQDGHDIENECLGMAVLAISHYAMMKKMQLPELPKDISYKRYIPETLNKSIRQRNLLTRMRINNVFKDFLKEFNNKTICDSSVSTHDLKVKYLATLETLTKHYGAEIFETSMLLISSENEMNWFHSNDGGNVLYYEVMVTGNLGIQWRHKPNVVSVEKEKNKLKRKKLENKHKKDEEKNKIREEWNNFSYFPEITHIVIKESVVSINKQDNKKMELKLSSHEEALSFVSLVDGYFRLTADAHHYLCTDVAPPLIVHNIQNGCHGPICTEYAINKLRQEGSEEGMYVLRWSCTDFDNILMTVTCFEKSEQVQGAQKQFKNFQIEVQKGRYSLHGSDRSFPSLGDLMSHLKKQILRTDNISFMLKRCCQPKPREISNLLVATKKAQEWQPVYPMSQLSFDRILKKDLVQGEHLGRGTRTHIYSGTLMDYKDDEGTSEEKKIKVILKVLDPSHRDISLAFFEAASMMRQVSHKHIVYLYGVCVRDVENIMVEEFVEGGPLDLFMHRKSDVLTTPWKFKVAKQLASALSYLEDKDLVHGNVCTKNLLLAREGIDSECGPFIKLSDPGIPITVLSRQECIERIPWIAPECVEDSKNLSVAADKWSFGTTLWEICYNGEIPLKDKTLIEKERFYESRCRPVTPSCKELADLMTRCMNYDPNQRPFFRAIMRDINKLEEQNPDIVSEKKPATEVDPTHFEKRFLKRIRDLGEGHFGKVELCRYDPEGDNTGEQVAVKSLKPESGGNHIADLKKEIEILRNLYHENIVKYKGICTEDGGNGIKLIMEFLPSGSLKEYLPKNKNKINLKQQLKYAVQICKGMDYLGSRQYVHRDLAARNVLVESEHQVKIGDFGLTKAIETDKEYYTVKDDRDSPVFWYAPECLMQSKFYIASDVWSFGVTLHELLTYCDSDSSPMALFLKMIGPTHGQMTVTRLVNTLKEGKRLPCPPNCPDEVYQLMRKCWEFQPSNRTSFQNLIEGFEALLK
UniProt P06239: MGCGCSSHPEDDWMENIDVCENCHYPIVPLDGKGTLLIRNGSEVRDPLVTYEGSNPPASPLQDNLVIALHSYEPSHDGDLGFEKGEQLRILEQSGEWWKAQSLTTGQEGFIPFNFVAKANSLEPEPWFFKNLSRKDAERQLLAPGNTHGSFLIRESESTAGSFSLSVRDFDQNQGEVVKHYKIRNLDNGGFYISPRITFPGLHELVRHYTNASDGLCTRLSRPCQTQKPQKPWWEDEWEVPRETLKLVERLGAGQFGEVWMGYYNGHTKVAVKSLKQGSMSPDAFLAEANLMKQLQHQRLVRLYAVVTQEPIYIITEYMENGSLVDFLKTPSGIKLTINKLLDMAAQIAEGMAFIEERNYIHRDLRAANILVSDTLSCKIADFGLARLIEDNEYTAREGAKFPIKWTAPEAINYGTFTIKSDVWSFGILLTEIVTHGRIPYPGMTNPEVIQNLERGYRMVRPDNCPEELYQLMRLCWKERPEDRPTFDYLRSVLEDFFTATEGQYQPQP
UniProt P53667: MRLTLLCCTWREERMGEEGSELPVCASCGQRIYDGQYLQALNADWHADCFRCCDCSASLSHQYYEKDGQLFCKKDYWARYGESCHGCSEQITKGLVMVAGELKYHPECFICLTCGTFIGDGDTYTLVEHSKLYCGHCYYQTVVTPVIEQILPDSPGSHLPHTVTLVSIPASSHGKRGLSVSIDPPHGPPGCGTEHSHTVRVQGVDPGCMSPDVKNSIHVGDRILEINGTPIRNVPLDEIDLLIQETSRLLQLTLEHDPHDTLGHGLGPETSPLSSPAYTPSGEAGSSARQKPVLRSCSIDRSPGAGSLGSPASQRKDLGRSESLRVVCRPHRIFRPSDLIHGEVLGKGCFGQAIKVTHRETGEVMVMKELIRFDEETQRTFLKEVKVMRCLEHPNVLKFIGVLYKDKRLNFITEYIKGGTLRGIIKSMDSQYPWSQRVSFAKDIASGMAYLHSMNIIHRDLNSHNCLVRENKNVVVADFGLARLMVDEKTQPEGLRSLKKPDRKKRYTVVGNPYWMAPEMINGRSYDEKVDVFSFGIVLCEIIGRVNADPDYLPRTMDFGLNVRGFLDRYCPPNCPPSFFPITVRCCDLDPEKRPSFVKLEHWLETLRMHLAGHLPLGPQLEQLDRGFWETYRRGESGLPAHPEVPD
UniProt P53671: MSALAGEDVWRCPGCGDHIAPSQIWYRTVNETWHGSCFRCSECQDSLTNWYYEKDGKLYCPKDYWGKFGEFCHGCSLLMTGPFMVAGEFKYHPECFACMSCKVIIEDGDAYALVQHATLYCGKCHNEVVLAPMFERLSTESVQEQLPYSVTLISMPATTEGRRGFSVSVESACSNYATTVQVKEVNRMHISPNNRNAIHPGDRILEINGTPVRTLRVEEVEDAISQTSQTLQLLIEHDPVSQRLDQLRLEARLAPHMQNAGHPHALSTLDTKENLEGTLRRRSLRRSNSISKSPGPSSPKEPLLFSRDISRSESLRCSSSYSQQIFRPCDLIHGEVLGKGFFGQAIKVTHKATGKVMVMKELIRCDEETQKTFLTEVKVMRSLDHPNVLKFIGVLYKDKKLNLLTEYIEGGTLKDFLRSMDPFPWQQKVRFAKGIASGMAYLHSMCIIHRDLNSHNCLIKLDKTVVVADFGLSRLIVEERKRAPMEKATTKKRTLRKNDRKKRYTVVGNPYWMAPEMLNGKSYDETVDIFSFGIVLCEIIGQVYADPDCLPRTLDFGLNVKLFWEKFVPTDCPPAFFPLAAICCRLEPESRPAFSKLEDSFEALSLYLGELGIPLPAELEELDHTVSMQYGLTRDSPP

Assays:
Experiment in all cases: number of time points (of 5) at which kinase-Nluc abundance scored as decreased, DMSO-normalised (count); higher = more persistent destabilization
Conditions in all cases: K562; 2-18 h
FLT3 = FLT3 (UniProt P36888)
FYN = FYN (UniProt P06241)
GSK3A = GSK3A (UniProt P49840)
HER2 = HER2 (UniProt P04626)
INSRR = INSRR (UniProt P14616)
IRAK3 = IRAK3 (UniProt Q9Y616)
JAK1 = JAK1 (UniProt P23458)
LCK = LCK (UniProt P06239)
LIMK1 = LIMK1 (UniProt P53667)
LIMK2 = LIMK2 (UniProt P53671)

Compound | number of time points (FLT3) | number of time points (FYN) | number of time points (GSK3A) | number of time points (HER2) | number of time points (INSRR) | number of time points (IRAK3) | number of time points (JAK1) | number of time points (LCK) | number of time points (LIMK1) | number of time points (LIMK2)
OCCC#Cc1nc(-c2ccc(F)cc2)c(-c2ccncc2)n1CCCc1ccccc1 (2.5 µM) | 0 | 0 | 0 | 0 | 0 | 0 | 0 | 0 | 0 | 0
O=C(c1ccc(NS(=O)(=O)c2cccc3cccnc23)cc1)N1CCN(CC2CC2)CC1 [Mitapivat] (10 µM) | 0 | 0 | 0 | 0 | 0 | 0 | 0 | 0 | 0 | 0
COc1ncc2cc(C(=O)Nc3cc(C(=O)NCc4cccc(Cl)c4)ccc3Cl)c(=O)[nH]c2n1 (2.5 µM) | 0 | 0 | 0 | 0 | 0 | 0 | 0 | 0 | 0 | 0
O=C(CC(c1ccccc1)C(C(=O)O)C(=O)O)c1ccc(C(F)(F)F)cc1 (stereo not given) (10 µM) | 0 | 0 | 0 | 0 | 0 | 0 | 0 | 0 | 0 | 0
Cc1ccc(-n2c(-c3ccc(O)cc3O)n[nH]c2=O)cc1 (10 µM) | 4 | 5 | 0 | 5 | 5 | 0 | 5 | 0 | 0 | 4
COc1ccc(S(=O)(=O)N(CCO)c2ccccc2CN(C)CC=Cc2ccc(Cl)cc2)cc1 (2.5 µM) | 0 | 0 | 0 | 0 | 0 | 0 | 0 | 0 | 0 | 1
CC(C)(O)c1cc2nc(-c3cnc(N)nc3)nc(N3CCOCC3)c2s1 (2.5 µM) | 0 | 0 | 0 | 1 | 0 | 2 | 0 | 0 | 4 | 3
C=CC(=O)Nc1cc(C(=O)NC)cc(-c2n[nH]c3ccccc23)c1 (10 µM) | 0 | 0 | 0 | 2 | 0 | 0 | 0 | 0 | 0 | 0
O=C(O)[C@]1(Cc2cccc(Nc3nccs3)n2)CC[C@@H](Oc2cccc(Cl)c2F)CC1 (2.5 µM) | 1 | 0 | 0 | 0 | 2 | 1 | 1 | 0 | 1 | 2
O=S(=O)(N=Cc1c(O)ccc2ccccc12)c1cccs1 (10 µM) | 0 | 0 | 0 | 0 | 0 | 0 | 0 | 0 | 0 | 0
CC[C@@H]1CN(C(=O)NCC(F)(F)F)C[C@@H]1c1cnc2cnc3[nH]ccc3n12 [Upadacitinib] (10 µM) | 0 | 0 | 0 | 0 | 0 | 0 | 0 | 0 | 0 | 0
NC(=O)c1ccc2nc(-c3ccc(C4(N)CCC4)cc3)c(-c3ccccc3)n2n1 (10 µM) | 0 | 0 | 0 | 0 | 0 | 0 | 0 | 0 | 0 | 0
C[C@@H]1CC[C@]2(C(=O)O)CC[C@]3(C)C(=CC[C@@H]4[C@@]5(C)CC[C@H](O)[C@@](C)(CO)[C@@H]5CC[C@]43C)[C@@H]2[C@]1(C)O [Rotundic acid] (10 µM) | 0 | 0 | 0 | 0 | 0 | 0 | 0 | 0 | 0 | 0
N#Cc1cn([C@@H]2O[C@H](CO)[C@@H](O)[C@H]2O)c2nc[nH]c(=O)c12 [Jaspamycin] (10 µM) | 0 | 0 | 0 | 0 | 0 | 0 | 0 | 0 | 0 | 0
NC(=O)c1nc(-c2c(F)cccc2Cl)oc1Nc1ccc(C(=O)N2CCOCC2)cc1 (10 µM) | 0 | 0 | 0 | 0 | 0 | 0 | 0 | 0 | 0 | 0
CC(=O)NCC(=O)N[C@@H](C)C(=O)N[C@@H](CCC(N)=O)C(=O)N[C@@H](Cc1ccccc1)C(=O)N[C@@H](CO)C(=O)N[C@@H](CCCCN)C(=O)N[C@H](C(=O)N[C@@H](C)C(=O)N[C@@H](C)C(=O)N[C@@H](CCCCN)C(=O)O)[C@@H](C)O (10 µM) | 0 | 0 | 0 | 0 | 0 | 0 | 0 | 0 | 0 | 0

Compound | number of time points (FLT3) | number of time points (FYN) | number of time points (GSK3A) | number of time points (HER2) | number of time points (INSRR) | number of time points (IRAK3) | number of time points (JAK1) | number of time points (LCK) | number of time points (LIMK1) | number of time points (LIMK2)
Cc1cc(Nc2ncc(Cl)c(Nc3ccccc3S(=O)(=O)C(C)C)n2)c(OC(C)C)cc1C1CCN(CC(=O)NCCNc2cccc3c2C(=O)N(C2CCC(=O)NC2=O)C3=O)CC1 (stereo not given) (10 µM) | 0 | 0 | 0 | 0 | 0 | 0 | 0 | 0 | 0 | 0
CCOC(=O)C1=C[C@]2(CC)CCCN3CCc4c(n1c1ccccc41)[C@@H]32 [Vinpocetine] (10 µM) | 0 | 0 | 0 | 0 | 0 | 0 | 0 | 0 | 0 | 0
COc1ccc(F)cc1C(=O)NCc1ccc(-c2nn([C@@H](C)C(F)(F)F)c(N)c2C(N)=O)cc1 [Pirtobrutinib] (10 µM) | 0 | 0 | 0 | 0 | 0 | 0 | 0 | 0 | 0 | 0
Cc1cc([N+](=O)[O-])c(NS(=O)(=O)c2cccc(C(=O)O)c2)cc1-c1cccnc1 [Alofanib] (10 µM) | 0 | 0 | 0 | 0 | 0 | 0 | 0 | 0 | 0 | 0
CCOc1cc(C(=O)N2CCC(N3CCN(C)CC3)CC2)ccc1Nc1ncc2c(n1)N(S(C)(=O)=O)c1ccccc1C(=O)N2C (10 µM) | 0 | 0 | 0 | 0 | 0 | 0 | 0 | 0 | 0 | 0
Cc1cccc(-c2[nH]c(C(C)(C)C)nc2-c2ccc3c(c2)OCO3)n1 (2.5 µM) | 0 | 0 | 0 | 0 | 0 | 0 | 0 | 0 | 0 | 0
COc1cc2nccc(Oc3ccc(NC(=O)Nc4ccc(F)cc4F)c(F)c3)c2cc1OC (10 µM) | 0 | 0 | 0 | 2 | 1 | 0 | 0 | 0 | 2 | 0
COC(=O)[C@]1(C)CC[C@]2(C(=O)O[C@@H]3O[C@H](CO)[C@@H](O)[C@H](O)[C@H]3O)CC[C@]3(C)C(=CC[C@@H]4[C@@]5(C)C[C@H](O)[C@H](O[C@@H]6OC[C@@H](O[C@@H]7O[C@H](CO)[C@@H](O)[C@H](O)[C@H]7O)[C@H](O)[C@H]6O)[C@@](C)(CO)C5CC[C@]43C)[C@H]2C1 (stereo not given in full) [Esculentoside H] (10 µM) | 0 | 0 | 0 | 0 | 0 | 0 | 0 | 0 | 0 | 0
C[C@@H](N)COc1ccc(-c2cnc3ccc(N[C@H](C)c4cccc(F)c4)nn23)cc1 [Taletrectinib] (2.5 µM) | 0 | 0 | 0 | 0 | 0 | 0 | 0 | 0 | 0 | 0
COC(=O)c1cc2c(OC(C)C)cc(OC(C)C)cc2[nH]1 (2.5 µM) | 0 | 0 | 0 | 0 | 0 | 0 | 0 | 0 | 0 | 0
CC(=O)Nc1nc(C)c(-c2cc3c(c(S(C)(=O)=O)c2)C(=O)N([C@@H](C)C2CC2)C3)s1 (2.5 µM) | 0 | 0 | 0 | 0 | 0 | 0 | 0 | 0 | 0 | 0
COc1ccc(C2CC(c3ccc(Cl)cc3)=NN2c2nc(-c3ccncc3)cs2)cc1 (stereo not given) [mTOR inhibitor-8] (10 µM) | 0 | 0 | 0 | 0 | 0 | 0 | 0 | 0 | 0 | 0
C=CC(=O)N1CCN(c2nc(OC[C@@H]3CCCN3C)nc3c2CCN(c2cccc4cccc(C)c24)C3)C[C@@H]1CC#N (2.5 µM) | 0 | 0 | 0 | 0 | 0 | 0 | 0 | 0 | 0 | 0
O=c1cc(N2CCOCC2)oc2c1ccc1ccccc12 (2 µM) | 0 | 0 | 0 | 0 | 0 | 0 | 0 | 0 | 0 | 0
CC(C)c1cnn2c(NCc3ccccc3)cc(NCCCCCCN)nc12 [BS-181 (hydrochloride)] (10 µM) | 0 | 0 | 0 | 0 | 0 | 0 | 0 | 0 | 0 | 3
Cc1cc(/C=C2\CC/C(=C\c3cc(C)c(O)c(C)c3)C2=O)cc(C)c1O [Pentagamavunon-1] (2.5 µM) | 0 | 0 | 0 | 0 | 0 | 0 | 0 | 0 | 0 | 0

In a second layout: entries from further up
Compound	number of time points (FLT3)	number of time points (FYN)	number of time points (GSK3A)	number of time points (HER2)	number of time points (INSRR)	number of time points (IRAK3)	number of time points (JAK1)	number of time points (LCK)	number of time points (LIMK1)	number of time points (LIMK2)
C=CC(=O)N1CCN(c2nc(OC[C@@H]3CCCN3C)nc3c2CCN(c2cccc4cccc(C)c24)C3)C[C@@H]1CC#N (2.5 µM)	0	0	0	0	0	0	0	0	0	0
O=c1cc(N2CCOCC2)oc2c1ccc1ccccc12 (2 µM)	0	0	0	0	0	0	0	0	0	0
